Results reported in PubChem BioAssay (EPA / NIEHS).
“And” between values parts separate entries of the source, which are not always exact repeats. Equal entries are not always repeated. The inconclusive results got no clear call from the source; some entries with a clear call stand among them for comparison. For some assays here: A potency beside an inconclusive call is a rough fit, not a confirmed value. Some structures have more than one record in an assay (separate samples or runs), and their calls can disagree. The source made the active and inactive calls. How the source made its calls, unless noted: active means hit-call score of the fitted dose curve at least 0.9, where 1 is the maximum; inconclusive means response in the unintended direction; inactive means score below 0.9.

By UniProt entry, the sequences of proteins in these tests, tags left out. Where a name states a change or a piece, a line headed by the entry shows the natural chain unless it says otherwise.
UniProt P04386, whole entry, looked up: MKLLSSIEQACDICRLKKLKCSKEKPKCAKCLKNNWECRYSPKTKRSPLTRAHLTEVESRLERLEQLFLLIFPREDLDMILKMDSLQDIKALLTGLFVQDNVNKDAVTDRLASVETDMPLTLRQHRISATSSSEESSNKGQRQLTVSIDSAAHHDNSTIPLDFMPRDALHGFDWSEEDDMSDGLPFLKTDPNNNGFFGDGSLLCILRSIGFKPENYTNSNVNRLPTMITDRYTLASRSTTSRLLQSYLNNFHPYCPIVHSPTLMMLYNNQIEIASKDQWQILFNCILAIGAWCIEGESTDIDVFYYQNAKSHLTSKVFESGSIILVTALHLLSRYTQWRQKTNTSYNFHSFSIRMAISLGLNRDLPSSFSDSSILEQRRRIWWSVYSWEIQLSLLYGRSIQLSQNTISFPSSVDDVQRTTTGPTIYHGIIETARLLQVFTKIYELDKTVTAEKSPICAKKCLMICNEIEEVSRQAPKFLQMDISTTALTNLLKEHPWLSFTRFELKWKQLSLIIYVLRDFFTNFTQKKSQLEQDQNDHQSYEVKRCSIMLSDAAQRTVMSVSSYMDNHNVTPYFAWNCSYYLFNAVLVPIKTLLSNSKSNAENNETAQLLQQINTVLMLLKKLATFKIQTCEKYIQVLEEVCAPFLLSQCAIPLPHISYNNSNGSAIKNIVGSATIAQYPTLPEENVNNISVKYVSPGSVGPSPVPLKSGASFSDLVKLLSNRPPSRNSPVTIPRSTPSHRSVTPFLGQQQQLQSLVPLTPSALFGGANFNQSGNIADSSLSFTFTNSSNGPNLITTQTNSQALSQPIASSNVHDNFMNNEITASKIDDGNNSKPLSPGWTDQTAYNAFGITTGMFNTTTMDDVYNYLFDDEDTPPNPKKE
UniProt P37231: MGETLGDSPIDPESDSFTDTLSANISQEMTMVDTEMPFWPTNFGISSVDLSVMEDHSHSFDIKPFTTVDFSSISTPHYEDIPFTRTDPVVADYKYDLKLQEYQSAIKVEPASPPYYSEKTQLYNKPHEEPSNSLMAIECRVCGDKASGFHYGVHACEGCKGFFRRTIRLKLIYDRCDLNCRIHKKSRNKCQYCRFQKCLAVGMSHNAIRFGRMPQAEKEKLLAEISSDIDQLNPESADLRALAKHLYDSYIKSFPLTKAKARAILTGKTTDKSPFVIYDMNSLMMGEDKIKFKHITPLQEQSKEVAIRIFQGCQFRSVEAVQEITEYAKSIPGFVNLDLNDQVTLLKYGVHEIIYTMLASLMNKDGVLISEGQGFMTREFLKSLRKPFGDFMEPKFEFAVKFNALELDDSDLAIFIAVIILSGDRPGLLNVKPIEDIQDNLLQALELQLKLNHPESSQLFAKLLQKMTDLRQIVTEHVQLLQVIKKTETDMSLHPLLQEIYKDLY
UniProt Q9PVE4: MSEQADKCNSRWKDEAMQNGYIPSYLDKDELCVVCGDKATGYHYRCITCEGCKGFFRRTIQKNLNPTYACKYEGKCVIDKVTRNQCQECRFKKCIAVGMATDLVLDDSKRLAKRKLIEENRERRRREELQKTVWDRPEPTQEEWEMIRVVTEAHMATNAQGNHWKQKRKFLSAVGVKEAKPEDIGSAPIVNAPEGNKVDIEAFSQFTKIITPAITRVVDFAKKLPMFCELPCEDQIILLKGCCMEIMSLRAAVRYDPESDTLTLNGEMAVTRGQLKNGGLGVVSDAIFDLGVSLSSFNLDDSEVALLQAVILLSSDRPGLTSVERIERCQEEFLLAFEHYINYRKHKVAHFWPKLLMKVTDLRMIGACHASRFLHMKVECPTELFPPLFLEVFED
UniProt P57717: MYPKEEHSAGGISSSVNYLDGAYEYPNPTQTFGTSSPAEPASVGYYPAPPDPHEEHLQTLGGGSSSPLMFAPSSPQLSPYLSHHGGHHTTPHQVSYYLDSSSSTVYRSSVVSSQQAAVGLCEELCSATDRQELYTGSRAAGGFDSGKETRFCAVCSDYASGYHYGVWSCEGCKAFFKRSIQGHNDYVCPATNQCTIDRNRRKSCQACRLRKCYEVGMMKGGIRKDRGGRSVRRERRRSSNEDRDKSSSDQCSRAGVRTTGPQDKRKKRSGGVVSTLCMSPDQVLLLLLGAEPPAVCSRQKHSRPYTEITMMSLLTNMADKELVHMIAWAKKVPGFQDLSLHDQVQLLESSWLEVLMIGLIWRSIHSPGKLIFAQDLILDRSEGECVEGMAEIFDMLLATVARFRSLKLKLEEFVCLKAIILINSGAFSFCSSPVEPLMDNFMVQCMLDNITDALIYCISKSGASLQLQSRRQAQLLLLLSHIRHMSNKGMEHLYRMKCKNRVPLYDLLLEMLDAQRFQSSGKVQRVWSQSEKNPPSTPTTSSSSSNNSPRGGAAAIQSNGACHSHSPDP
UniProt P06212, whole entry, looked up: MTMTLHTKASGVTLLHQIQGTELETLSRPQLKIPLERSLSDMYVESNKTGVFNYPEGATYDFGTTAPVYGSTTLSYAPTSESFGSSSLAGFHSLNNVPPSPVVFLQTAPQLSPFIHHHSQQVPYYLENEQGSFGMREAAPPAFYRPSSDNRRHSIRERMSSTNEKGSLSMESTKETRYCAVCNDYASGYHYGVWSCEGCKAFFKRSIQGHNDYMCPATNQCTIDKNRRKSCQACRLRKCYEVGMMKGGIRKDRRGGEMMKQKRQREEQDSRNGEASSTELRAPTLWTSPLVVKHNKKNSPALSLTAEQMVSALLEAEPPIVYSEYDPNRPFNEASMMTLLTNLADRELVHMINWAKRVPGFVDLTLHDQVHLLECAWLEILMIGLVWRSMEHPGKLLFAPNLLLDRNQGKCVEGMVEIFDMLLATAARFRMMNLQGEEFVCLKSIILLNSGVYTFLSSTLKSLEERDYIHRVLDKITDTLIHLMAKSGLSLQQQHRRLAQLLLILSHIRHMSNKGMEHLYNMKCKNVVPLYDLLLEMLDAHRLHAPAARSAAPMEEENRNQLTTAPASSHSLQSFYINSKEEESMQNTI
UniProt P10275: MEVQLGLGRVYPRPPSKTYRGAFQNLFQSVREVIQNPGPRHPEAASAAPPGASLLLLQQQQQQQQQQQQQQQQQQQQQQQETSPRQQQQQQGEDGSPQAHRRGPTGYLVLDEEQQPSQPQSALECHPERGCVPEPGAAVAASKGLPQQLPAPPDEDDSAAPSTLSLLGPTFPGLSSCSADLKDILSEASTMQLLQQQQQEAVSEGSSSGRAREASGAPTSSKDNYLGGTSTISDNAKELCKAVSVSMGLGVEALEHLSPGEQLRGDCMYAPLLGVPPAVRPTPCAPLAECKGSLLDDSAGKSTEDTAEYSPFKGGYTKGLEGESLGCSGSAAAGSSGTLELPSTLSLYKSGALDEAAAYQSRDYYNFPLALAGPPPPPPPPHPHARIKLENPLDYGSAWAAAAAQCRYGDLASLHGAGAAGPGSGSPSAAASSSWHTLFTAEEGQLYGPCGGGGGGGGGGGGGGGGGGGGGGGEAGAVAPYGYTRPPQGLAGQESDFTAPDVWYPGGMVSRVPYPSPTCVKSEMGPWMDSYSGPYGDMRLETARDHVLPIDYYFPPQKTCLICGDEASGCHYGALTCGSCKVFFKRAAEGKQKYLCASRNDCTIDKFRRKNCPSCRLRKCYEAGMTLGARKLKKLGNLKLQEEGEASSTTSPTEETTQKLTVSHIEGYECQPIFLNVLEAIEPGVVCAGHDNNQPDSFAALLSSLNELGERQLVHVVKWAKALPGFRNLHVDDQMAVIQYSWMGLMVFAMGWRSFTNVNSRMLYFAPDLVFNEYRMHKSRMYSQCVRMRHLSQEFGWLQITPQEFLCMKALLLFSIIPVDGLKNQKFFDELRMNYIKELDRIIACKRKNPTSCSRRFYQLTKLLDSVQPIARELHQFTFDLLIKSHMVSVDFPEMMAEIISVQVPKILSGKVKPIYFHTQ
UniProt P03372, whole entry, looked up: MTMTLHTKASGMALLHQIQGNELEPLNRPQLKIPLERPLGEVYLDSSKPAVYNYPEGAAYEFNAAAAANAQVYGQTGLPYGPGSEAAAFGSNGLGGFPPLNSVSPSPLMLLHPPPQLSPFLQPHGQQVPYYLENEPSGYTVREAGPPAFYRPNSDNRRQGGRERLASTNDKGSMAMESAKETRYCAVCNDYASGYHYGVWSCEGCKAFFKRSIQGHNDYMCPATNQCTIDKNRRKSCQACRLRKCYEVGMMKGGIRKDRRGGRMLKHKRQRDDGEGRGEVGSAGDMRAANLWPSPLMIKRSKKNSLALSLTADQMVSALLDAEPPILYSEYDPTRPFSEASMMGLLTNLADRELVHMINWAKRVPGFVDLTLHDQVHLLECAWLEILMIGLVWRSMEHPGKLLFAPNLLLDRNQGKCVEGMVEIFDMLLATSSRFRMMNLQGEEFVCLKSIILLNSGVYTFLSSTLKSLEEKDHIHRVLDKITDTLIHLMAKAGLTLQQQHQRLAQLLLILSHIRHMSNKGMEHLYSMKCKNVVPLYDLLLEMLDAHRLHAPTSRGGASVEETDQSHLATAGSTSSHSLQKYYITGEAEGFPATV
UniProt Q98867: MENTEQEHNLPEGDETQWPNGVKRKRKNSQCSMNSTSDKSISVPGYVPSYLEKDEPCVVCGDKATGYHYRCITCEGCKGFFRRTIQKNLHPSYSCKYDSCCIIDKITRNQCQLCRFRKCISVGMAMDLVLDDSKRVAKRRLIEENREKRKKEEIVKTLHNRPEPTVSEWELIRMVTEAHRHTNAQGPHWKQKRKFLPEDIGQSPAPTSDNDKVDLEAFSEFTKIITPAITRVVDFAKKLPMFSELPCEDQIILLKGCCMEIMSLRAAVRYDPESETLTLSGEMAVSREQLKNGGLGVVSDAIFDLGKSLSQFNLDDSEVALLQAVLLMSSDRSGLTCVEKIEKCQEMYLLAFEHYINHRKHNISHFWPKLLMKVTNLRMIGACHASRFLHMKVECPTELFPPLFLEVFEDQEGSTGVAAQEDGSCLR
UniProt P37238, whole entry, looked up: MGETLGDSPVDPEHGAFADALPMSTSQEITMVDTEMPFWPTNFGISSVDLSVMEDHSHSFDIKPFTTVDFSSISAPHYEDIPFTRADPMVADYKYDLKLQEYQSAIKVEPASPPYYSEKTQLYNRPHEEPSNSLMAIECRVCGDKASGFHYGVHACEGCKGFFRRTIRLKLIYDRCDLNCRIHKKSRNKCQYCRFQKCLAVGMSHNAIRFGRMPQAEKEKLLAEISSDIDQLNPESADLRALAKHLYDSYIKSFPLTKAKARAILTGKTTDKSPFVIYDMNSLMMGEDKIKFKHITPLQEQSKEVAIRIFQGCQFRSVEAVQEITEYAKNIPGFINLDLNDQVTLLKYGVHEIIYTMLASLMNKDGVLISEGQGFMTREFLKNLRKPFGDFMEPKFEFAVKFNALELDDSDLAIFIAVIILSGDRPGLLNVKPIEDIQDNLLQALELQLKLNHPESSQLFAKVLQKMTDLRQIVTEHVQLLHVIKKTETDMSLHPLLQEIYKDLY

Assays:
[1] = target: GAL4 Transcription Factor (Internal Marker), GAL4 (gene 855828) (UniProt P04386); test: ATG_GAL4_XSP2: Attagene TRANS-FACTORIAL Multi-Species (XSP2) HepG2 Assay for GAL4 Transcription Factor (Internal Marker) (AID 2283814);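 further: GAL4 reporter mRNA background control in MRTU transfected cells not a receptor target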
Summary of the method: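 Background-control readout: gain-of-signal fitted against DMSO. After 24 h exposure of transfected HepG2 (MRTU, GAL4-UAS reporters; 3 nM 6-alpha-fluorotestosterone, 1.5 nM norgestrel present), transcripts quantified by RT-PCR and capillary electrophoresis fluorescence.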

[2] = system: chicken Androgen Receptor (AR), gene 422165; test: ATG_chAR_XSP2: Attagene TRANS-FACTORIAL Multi-Species (XSP2) HepG2 Assay for chicken Androgen Receptor (AR) (AID 2283819);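 further: hits raise reporter mRNA above DMSO so potency is for activation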
Summary of the method: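 Readout is reporter mRNA induction via RT-PCR/capillary electrophoresis after 24 h chemical exposure, positive direction relative to DMSO. Transiently transfected HepG2 express chimeric chicken AR–GAL4; AR stimulated by 3 nM 6-alpha-fluorotestosterone and 1.5 nM norgestrel.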

[3] = system: frog Androgen Receptor (AR), gene 399456; test: ATG_frAR_XSP2: Attagene TRANS-FACTORIAL Multi-Species (XSP2) HepG2 Assay for frog Androgen Receptor (AR) (AID 2283824);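 further: reporter mRNA from GAL4-UAS units driven by Xenopus AR-Gal4 chimera; actives raise reporter signal above DMSO so AC50 reflects agonist-like induction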
Summary of the method: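 Reporter transcript induction, read by RT-PCR with fluorescent capillary electrophoresis, in human liver HepG2 cells carrying an exogenous Xenopus AR-Gal4 fusion and GAL4-driven reporters; chemical exposure 24 hours, activity scored upward against DMSO controls.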

[4] = ATG_M_32_XSP2: Attagene TRANS-FACTORIAL Multi-Species (XSP2) HepG2 Assay for M19 Transcription Factor (Internal Marker) (AID 2283826)
Summary of the method: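 Read-out: reporter mRNA quantified by RT-PCR, FAM labeling, HpaI digestion and capillary electrophoresis, 24 h after dosing transfected HepG2 cells. Medium carried 3 nM 6-alpha-fluorotestosterone plus 1.5 nM norgestrel; gain of signal fitted against DMSO.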

[5] = system: frog Estrogen Receptor (ER2), gene 100174814; test: ATG_frER2_XSP2: Attagene TRANS-FACTORIAL Multi-Species (XSP2) HepG2 Assay for frog Estrogen Receptor (ER2) (AID 2283828)
Summary of the method: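 Cells were transfected with reporter constructs under GAL4-UAS control, dosed with chemicals for 24 h, then lysed for RNA; the frog ER2-driven reporter mRNA was quantified by capillary electrophoresis of labeled PCR fragments, with activity fitted upward from DMSO.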

[6] = target: Peroxisome proliferator-activated receptor gamma (Homo sapiens) (UniProt P37231); test: ATG_hPPARg_XSP2: Attagene TRANS-FACTORIAL Multi-Species (XSP2) HepG2 Assay for human Peroxisome Proliferator-activated Receptor gamma (PPARg) (AID 2283829);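 further: actives raise reporter mRNA above DMSO so AC50 reflects PPARg activation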
Summary of the method: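 Reporter transcripts were measured by RT-PCR, fluorescent labeling, HpaI digestion and capillary electrophoresis, relative to DMSO, 24 h post-dosing. Transiently transfected HepG2 expressed NR-Gal4 chimeras regulating GAL4-UAS reporters; medium contained 3 nM 6-alpha-fluorotestosterone plus 1.5 nM norgestrel.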

[7] = target: Nuclear receptor subfamily 1 group I member 2 (Mus musculus) (UniProt O54915); test: ATG_mPXR_XSP2: Attagene TRANS-FACTORIAL Multi-Species (XSP1) HepG2 Assay for mouse Pregnane X Receptor (PXR) (AID 2283831)
Summary of the method: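 Reporter transcripts measured after 24 h dosing by RT-PCR with 6-FAM labelling, HpaI digestion and capillary electrophoresis. Transiently transfected HepG2 with NR-Gal4 chimeras; increase over DMSO baseline scored.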

[8] = system: turtle Thyroid Hormone Receptor, alpha (TRa), gene 101949057; test: ATG_trTRa_XSP2: Attagene TRANS-FACTORIAL Multi-Species (XSP1) HepG2 Assay for turtle Thyroid Hormone Receptor, alpha (TRa) (AID 2283834);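 further: hits raise reporter mRNA over the DMSO baseline so AC50 marks activators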
Summary of the method: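 Turtle TRa-Gal4 chimera activity in transfected human HepG2 cells: reporter transcripts quantified by RT-PCR, 6-FAM labelling and capillary electrophoresis 24 h post-dosing; positive direction versus DMSO, medium containing 3 nM 6-alpha-fluorotestosterone and 1.5 nM norgestrel.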

[9] = target: zebrafish Thyroid Hormone Receptor beta (TRb), thrb (gene 30607) (UniProt Q9PVE4); test: ATG_zfTRb_XSP2: Attagene TRANS-FACTORIAL Multi-Species (XSP1) HepG2 Assay for zebrafish Thyroid Hormone Receptor beta (TRb) (AID 2283836);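 on AC50: potency for induction of reporter signal above DMSO so agonist direction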
Summary of the method: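 Multiplexed trans-activation in HepG2 cells, 24 h treatment, with reporter mRNA read by RT-PCR and capillary electrophoresis. Gain-of-signal against DMSO.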

[10] = target: zebrafish Estrogen Receptor (ER1), esr1 (gene 259252) (UniProt P57717); test: ATG_zfER1_XSP2: Attagene TRANS-FACTORIAL Multi-Species (XSP2) HepG2 Assay for zebrafish Estrogen Receptor (ER1) (AID 2283816)
Summary of the method: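 After 24 h compound exposure, RNA from transfected HepG2 cells was reverse-transcribed and reporter transcripts resolved by capillary electrophoresis. The TRANS format reads exogenous zebrafish ER1-Gal4 chimera activity on GAL4-UAS elements; gain of signal against DMSO.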

[11] = target: chicken Estrogen Receptor (ERa), ESR1 (gene 396099) (UniProt P06212); test: ATG_chERa_XSP2: Attagene TRANS-FACTORIAL Multi-Species (XSP2) HepG2 Assay for chicken Estrogen Receptor (ERa) (AID 2283817);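 further: actives raise reporter signal above DMSO so AC50 reflects ER activation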
Summary of the method: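 Readout: fluorescent reporter-transcript fragments resolved by capillary electrophoresis after RT-PCR and HpaI cut. Chicken ERa-Gal4 fusion in transiently transfected HepG2, dosed for 24 h; activity taken as increase over DMSO baseline.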

[12] = system: zebrafish Estrogen Receptor (ER2a), gene 317734; test: ATG_zfER2a_XSP2: Attagene TRANS-FACTORIAL Multi-Species (XSP2) HepG2 Assay for zebrafish Estrogen Receptor (ER2a) (AID 2283818);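 further: hits raise reporter mRNA so AC50 reflects activation of zebrafish ER2a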
Summary of the method: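 Multiplexed trans-reporter readout: RT-PCR then capillary electrophoresis of reporter transcripts after 24 h compound treatment. Human HepG2 carries transfected zebrafish ER2a-Gal4 chimera; 3 nM 6-alpha-fluorotestosterone plus 1.5 nM norgestrel present. Induction scored against DMSO.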

[13] = target: human Androgen Receptor (AR), AR (gene 367) (UniProt P10275); test: ATG_hAR_XSP2: Attagene TRANS-FACTORIAL Multi-Species (XSP2) HepG2 Assay for human Androgen Receptor (AR) (AID 2283820)
Summary of the method: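 Reporter transcripts were measured by RT-PCR and capillary electrophoresis 24 h post-dosing, with gain of signal fitted against DMSO. Transiently transfected HepG2 cells expressed chimeric NR-Gal4 on GAL4-UAS reporters, with AR stimulated by 3 nM 6-alpha-fluorotestosterone and 1.5 nM norgestrel.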

[14] = system: frog Estrogen Receptor (ER), gene 398734; test: ATG_frER1_XSP2: Attagene TRANS-FACTORIAL Multi-Species (XSP2) HepG2 Assay for frog Estrogen Receptor (ER) (AID 2283821);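 further: hits raise reporter mRNA above DMSO baseline so potency means agonist or activator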
Summary of the method: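 Reporter mRNA induction, detected as fluorescence after RT-PCR and capillary electrophoresis, is the endpoint; activity is fitted upward against DMSO. Cells are human liver HepG2 carrying transfected NR-Gal4 chimeras with GAL4-UAS-driven reporters, harvested 24 h post-dosing.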

[15] = target: Estrogen receptor (Homo sapiens) (UniProt P03372); test: ATG_hERa_XSP2: Attagene TRANS-FACTORIAL Multi-Species (XSP2) HepG2 Assay for human Estrogen Receptor (ERa) (AID 2283827)
Summary of the method: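 Trans-activation of exogenous human ERa-Gal4 chimera read in HepG2 as reporter transcript after 24 h exposure; medium included 3 nM 6-alpha-fluorotestosterone and 1.5 nM norgestrel. Quantified by RT-PCR with capillary electrophoresis, positive-direction fitting against DMSO.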

[16] = target: zebrafish Thyroid Hormone Receptor alpha (TRa), thraa (gene 30670) (UniProt Q98867); test: ATG_zfTRa_XSP2: Attagene TRANS-FACTORIAL Multi-Species (XSP1) HepG2 Assay for zebrafish Thyroid Hormone Receptor alpha (TRa) (AID 2283832);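 further: actives raise zebrafish TRa-Gal4 reporter transcript above DMSO baseline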
Summary of the method: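 Multiplexed TRANS reporter format in HepG2; the medium also contained 3 nM 6-alpha-fluorotestosterone and 1.5 nM norgestrel. Reporter mRNA after 24 h read by RT-PCR and capillary electrophoresis, scored as induction over DMSO.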

[17] = target: mouse Peroxisome Proliferator-activated Receptor gamma (PPARg), Pparg (gene 19016) (UniProt P37238); test: ATG_mPPARg_XSP2: Attagene TRANS-FACTORIAL Multi-Species (XSP2) HepG2 Assay for mouse Peroxisome Proliferator-activated Receptor gamma (PPARg) (AID 2283830);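 further: hits are gains in reporter mRNA above DMSO so AC50 marks activation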
Summary of the method: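 Multiplexed TRANS reporter readout: after 24 h chemical exposure of transfected HepG2 cells (with 3 nM 6-alpha-fluorotestosterone, 1.5 nM norgestrel present), RNA reverse-transcribed, amplified, 6-FAM-labelled and resolved by capillary electrophoresis; mouse PPARg-Gal4 induction scored against DMSO.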

[18] = system: zebrafish Peroxisome Proliferator-activated Receptor gamma (PPARg), gene 557037; test: ATG_zfPPARg_XSP2: Attagene TRANS-FACTORIAL Multi-Species (XSP2) HepG2 Assay for zebrafish Peroxisome Proliferator-activated Receptor gamma (PPARg) (AID 2283833);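 further: reporter mRNA from a zebrafish PPARg GAL4 chimera measured by RT-PCR and capillary electrophoresis; actives increase reporter signal over DMSO so AC50 reflects activation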
Summary of the method: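 After 24 h chemical exposure, RNA from transiently transfected HepG2 (chimeric NR-Gal4 TRANS reporters) was reverse-transcribed, PCR-amplified, 6-FAM-labelled, HpaI-cut and sized by capillary electrophoresis. Induction was scored in the positive direction relative to DMSO.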

[19] = ATG_M_61_XSP2: Attagene TRANS-FACTORIAL Multi-Species (XSP2) HepG2 Assay for M61 Transcription Factor (Internal Marker) (AID 2283835; active means hit-call score of the fitted dose curve at least 0.9, where 1 is the maximum; inactive means score below 0.9;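 further: reporter mRNA of an internal background marker read by RT-PCR and capillary electrophoresis; active means a rise in signal above the DMSO baseline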)
Summary of the method: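 Transient MRTU transfection of human HepG2; 24 h chemical dosing with 3 nM 6-alpha-fluorotestosterone + 1.5 nM norgestrel added for AR stimulation. RNA isolated, RT, PCR, FAM-labelled, HpaI cut, CE read. Positive direction vs DMSO.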

Measured: AC50

Clc1nc(Cl)c(Cl)c(Cl)c1Cl
inactive: [4] | [9]
active: [6] 1.04 µM and 14.9 µM
inconclusive: [1] 26.6 µM | [2] 52.6 µM and 78.9 µM | [3] 100 µM and 59.7 µM | [5] 24.5 µM | [7] 26.6 µM | [8] 100 µM and 955 nM

CCN(CC)C(=S)SSC(=S)N(CC)CC
inconclusive: [10] 100 µM | [11] 43.5 µM | [12] 19.8 µM | [2] 5.62 µM | [13] 47.2 µM | [14] 27.6 µM | [3] 8.76 µM | [15] 17.9 µM | [5] 26.5 µM
inactive: [16] | [8]

CC(C)(C)NC(=O)[C@H]1CC[C@H]2[C@@H]3CC[C@H]4NC(=O)C=C[C@]4(C)[C@H]3CC[C@]12C
inactive: [1] | [17]
inconclusive: [10] 100 µM | [2] 14.1 µM | [3] 24.5 µM | [6] 100 µM | [16] 100 µM | [18] 0.158 µM | [9] 0.459 µM
active: [8] 25.9 µM

OCc1cccc(Oc2ccccc2)c1
inconclusive: [2] 100 µM | [13] 100 µM and 34.2 µM | [3] 80.6 µM and 33.1 µM | [4] 100 µM | [8] 0.184 µM | [9] 100 µM
active: [5] 27.5 µM and 9.21 µM | [7] 57.4 µM
inactive: [1] | [7] | [16]

CCCCC(CC)CN1C(=O)C2C3C=CC(C3)C2C1=O (stereo not drawn)
inactive: [11] | [8]
active: [4] 174 µM | [18] 100 µM
inconclusive: [2] 100 µM | [3] 3.68 µM | [9] 0.882 µM

Oc1ccccc1Cc1ccccc1O
inconclusive: [2] 100 µM | [3] 100 µM and 50.8 µM
inactive: [1] | [16] | [19] | [9]

CC(C)(C)c1cc(O)c(C(C)(C)C)cc1O
inconclusive: [1] 100 µM | [13] 73.9 µM | [3] 100 µM | [4] 100 µM | [7] 100 µM | [8] 100 µM
inactive: [10] | [2] | [5]

C=CCOC(Cn1ccnc1)c1ccc(Cl)cc1Cl (stereo not drawn)
inactive: [1] | [4]
inconclusive: [2] 170 µM | [3] 12.6 µM | [8] 179 µM
